Paper PMC10878159
These are yes or no findings as the source states them, for the method shown. Binding seen in cells or lysates may run through a third protein. Some entries that bind do so weakly or less than the wild type.

The chains behind the UniProt entries cited, without tags or fusion partners.
UniProt P14859: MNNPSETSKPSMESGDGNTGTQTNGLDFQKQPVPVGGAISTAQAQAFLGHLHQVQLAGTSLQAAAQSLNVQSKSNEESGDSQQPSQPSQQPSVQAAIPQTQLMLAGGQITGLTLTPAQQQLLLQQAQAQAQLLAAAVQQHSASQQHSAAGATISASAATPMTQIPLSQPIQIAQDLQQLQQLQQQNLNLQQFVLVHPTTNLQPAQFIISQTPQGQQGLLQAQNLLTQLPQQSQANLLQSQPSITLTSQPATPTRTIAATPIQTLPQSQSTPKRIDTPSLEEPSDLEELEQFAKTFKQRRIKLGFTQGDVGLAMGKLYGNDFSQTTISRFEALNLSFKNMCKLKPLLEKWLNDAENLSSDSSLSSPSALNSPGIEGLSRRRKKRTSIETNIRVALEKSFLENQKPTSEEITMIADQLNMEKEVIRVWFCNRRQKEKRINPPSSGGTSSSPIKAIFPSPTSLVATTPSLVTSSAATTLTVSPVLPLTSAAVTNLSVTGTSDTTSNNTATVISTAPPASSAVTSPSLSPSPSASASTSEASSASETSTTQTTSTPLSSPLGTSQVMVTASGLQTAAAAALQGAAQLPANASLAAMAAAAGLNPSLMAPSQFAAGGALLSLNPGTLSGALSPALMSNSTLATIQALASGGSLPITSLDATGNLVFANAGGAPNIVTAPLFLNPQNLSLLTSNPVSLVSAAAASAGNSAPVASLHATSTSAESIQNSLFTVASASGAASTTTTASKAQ
UniProt P19474: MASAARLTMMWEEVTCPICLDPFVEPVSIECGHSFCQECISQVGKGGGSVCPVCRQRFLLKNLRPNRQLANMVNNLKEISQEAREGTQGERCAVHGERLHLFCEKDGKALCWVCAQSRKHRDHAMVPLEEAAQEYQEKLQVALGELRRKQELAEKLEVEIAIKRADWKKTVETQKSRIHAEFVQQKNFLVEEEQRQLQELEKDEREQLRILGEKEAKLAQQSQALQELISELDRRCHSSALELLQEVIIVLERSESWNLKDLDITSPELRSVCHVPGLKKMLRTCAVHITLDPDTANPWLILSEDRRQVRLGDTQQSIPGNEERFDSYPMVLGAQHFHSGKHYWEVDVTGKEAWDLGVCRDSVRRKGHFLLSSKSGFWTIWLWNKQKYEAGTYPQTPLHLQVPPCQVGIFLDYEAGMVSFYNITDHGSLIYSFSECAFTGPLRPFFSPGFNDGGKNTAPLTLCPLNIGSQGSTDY

Biological target: POU2F1 (human (in human CRC cells)) (UniProt P14859)
Assay: co-IP; in CRC cells; bait, antibodies and cell lines not told in the text shown

## TRIM21 (from UniProt P19474 1-475)
  binding: binds
